Substitutions are numbered along the chain they refer to. No constants are given. Whether binding was seen depends on the method and setting. A result given as binding can be weak or reduced; the word gives no strength. Blank lines part the entries; values can stand above or below the binder they belong to.
Experiments:
[1] = target: human IL-25 (R&D Systems) (human) (UniProt Q9H293); assay: ELISA, plate coated with human IL-25
[2] = target: human IL-25 (R&D Systems) (human) (UniProt Q9H293); assay: ELISA on IL-25 after 10 minutes at various temperatures
[3] = target: human IL-25 (R&D Systems) (human) (UniProt Q9H293); assay: ELISA, plate coated with human IL-25, HEK293T supernatants

Sequences of proteins named here, by UniProt entry; tags and fusion partners are left off. A change or cut given only in a name is not applied to a line headed by its entry.
UniProt Q9H293: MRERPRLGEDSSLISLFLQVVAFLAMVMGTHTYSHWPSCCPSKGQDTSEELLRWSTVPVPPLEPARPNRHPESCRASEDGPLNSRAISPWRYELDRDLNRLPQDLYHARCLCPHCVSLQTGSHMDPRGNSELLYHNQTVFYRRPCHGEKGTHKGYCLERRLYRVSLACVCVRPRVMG

B3: humanised antibody RH2.5_S30T (antibody, human IgG1, V domains shown)
VH: EVQLVESGAEVKKPGASVKVSCKASGYSFTGYTMNWVRQAPGQRLEWMGLINPYNGGTSYNQNFKGRVTLTRDTSASTAYLELNSLRSEDTGVYYCAREDYDGYLYFAMDYWGQGTLVTVSS
VL: DIQMTQSPSSLSASVGDRVTITCSASQGISNYLNWYQQKPGKVPKLLIYYTSSLHSGVPSRFSGSGSGTDFTLTISSLQPEDVATYYCQQYSKLPYTFGQGTKLEIK
binding [2]: binds | binding [1]: binds

B4: chimeric 2c3 antibody (2c3 light and heavy variable regions, human IgG1/kappa) (antibody, V domains shown)
VH: EVQLQQSGPELVKPGASMKISCKASGYSFTDYTMNWVKQSHGKNLEWIGLINPYNGGTSYNQNFKGKATLTVDKSSSTAYMELLSLTSEDSAVYYCAREGYDGYLYFAMDYWGQGTSVTVSS
VL: DIQMTQTTSSLSASLGDRVTISCSASQGISNYLNWYQQKADGTVELLIYYTSSLHSGVPSRFSGSGSGTDYSLTISNLEPEDIATYYCQQYSKLPYTFGGGTKLEIK
binding [3]: binds | binding [2]: binds

B5: antibody of humanised light chain RKA with chimeric 2c3 heavy chain (antibody, V domains shown)
VH: B4 VH
VL: B3 VL
binding [3]: binds

More lines, now with the values ahead:

binding [1]: binds
B1: humanised antibody RH2.5 (antibody, V domains shown)
VH: B3 VH with T30S
VL: B3 VL

binding [2]: binds | binding [1]: binds
B2: humanised antibody RH2.5_R71V (antibody, human IgG1, V domains shown)
VH: B3 VH with T30S, R72V
VL: B3 VL
